We go through 4 molecules from article doi:10.1101/2023.08.17.553727.

Sequences of proteins named here, by UniProt entry; tags and fusion partners are left off.
UniProt Q9XGR4: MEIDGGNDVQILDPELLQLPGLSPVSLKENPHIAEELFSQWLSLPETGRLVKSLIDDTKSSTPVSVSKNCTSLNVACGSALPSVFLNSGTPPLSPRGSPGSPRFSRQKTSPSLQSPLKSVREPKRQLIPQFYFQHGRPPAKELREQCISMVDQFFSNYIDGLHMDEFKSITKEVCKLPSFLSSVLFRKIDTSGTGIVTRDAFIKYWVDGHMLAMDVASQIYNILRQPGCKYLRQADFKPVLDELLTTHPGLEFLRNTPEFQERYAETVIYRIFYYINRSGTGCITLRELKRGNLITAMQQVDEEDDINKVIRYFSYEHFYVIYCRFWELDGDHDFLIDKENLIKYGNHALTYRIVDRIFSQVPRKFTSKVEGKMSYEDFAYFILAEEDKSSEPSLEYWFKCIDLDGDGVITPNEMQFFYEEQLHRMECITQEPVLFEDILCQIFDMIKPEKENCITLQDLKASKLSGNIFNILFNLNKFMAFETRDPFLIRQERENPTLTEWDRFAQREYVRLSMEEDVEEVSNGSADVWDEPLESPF
UniProt Q5QIT3: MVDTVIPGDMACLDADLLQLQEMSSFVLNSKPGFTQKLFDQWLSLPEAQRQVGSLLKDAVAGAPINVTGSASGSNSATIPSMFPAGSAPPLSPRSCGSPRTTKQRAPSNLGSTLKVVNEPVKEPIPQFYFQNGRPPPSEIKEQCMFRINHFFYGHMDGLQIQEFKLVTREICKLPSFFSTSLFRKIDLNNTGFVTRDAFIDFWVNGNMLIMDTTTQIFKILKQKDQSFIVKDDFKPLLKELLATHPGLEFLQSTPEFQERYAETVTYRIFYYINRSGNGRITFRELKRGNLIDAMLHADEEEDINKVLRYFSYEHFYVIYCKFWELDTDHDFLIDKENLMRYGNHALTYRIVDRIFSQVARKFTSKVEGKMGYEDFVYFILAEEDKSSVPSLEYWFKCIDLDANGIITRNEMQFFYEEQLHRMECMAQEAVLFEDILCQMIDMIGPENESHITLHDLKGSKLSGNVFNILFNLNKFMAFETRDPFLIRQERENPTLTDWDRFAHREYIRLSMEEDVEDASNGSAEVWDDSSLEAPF

Assay [1] addresses B’’α-GAL4-DNA binding domain fusion (Arabidopsis thaliana) (UniProt Q9XGR4). Description: two-hybrid.
Assay [2] deals with B’’β-GAL4-DNA binding domain fusion (Arabidopsis thaliana) (UniProt Q5QIT3). The experiment in a line: two-hybrid.
The target in assay [3] is MBP-B’’α (Arabidopsis thaliana) (UniProt Q9XGR4). Description: pull-down.
The target of assay [4] is MBP-B’’β (Arabidopsis thaliana) (UniProt Q5QIT3). The experiment in a line: pull-down.

No constants are given. Whether binding was seen depends on the method and setting. For some assays here: In cells and extracts the contact can be indirect. Some results given as binding are weak or reduced against the parent protein; the word gives no strength. Where a sequence is shown, tags or fusion partners need not be part of it.

B1: GAL4-activation domain fused to full-length PIF5 (protein, UniProt Q84LH8 1-444)
chain: MEQVFADWNFEDNFHMSTNKRSIRPEDELVELLWRDGQVVLQSQARREPSVQVQTHKQETLRKPNNIFLDNQETVQKPNYAALDDQETVSWIQYPPDDVIDPFESEFSSHFFSSIDHLGGPEKPRTIEETVKHEAQAMAPPKFRSSVITVGPSHCGSNQSTNIHQATTLPVSMSDRSKNVEERLDTSSGGSSGCSYGRNNKETVSGTSVTIDRKRKHVMDADQESVSQSDIGLTSTDDQTMGNKSSQRSGSTRRSRAAEVHNLSERRRRDRINERMKALQELIPHCSRTDKASILDEAIDYLKSLQMQLQVMWMGSGMAAAAAAAASPMMFPGVQSSPYINQMAMQSQMQLSQFPVMNRSAPQNHPGLVCQNPVQLQLQAQNQILSEQLARYMGGIPQMPPAGNQMQTVQQQPADMLGFGSPAGPQSQLSAPATTDSLHMGKIG
In the case of B1, the binding entry in assay [1] and in assay [2] was “binds” each time.

B2: PIF5-MYC (protein, UniProt Q84LH8 1-444)
chain: MEQVFADWNFEDNFHMSTNKRSIRPEDELVELLWRDGQVVLQSQARREPSVQVQTHKQETLRKPNNIFLDNQETVQKPNYAALDDQETVSWIQYPPDDVIDPFESEFSSHFFSSIDHLGGPEKPRTIEETVKHEAQAMAPPKFRSSVITVGPSHCGSNQSTNIHQATTLPVSMSDRSKNVEERLDTSSGGSSGCSYGRNNKETVSGTSVTIDRKRKHVMDADQESVSQSDIGLTSTDDQTMGNKSSQRSGSTRRSRAAEVHNLSERRRRDRINERMKALQELIPHCSRTDKASILDEAIDYLKSLQMQLQVMWMGSGMAAAAAAAASPMMFPGVQSSPYINQMAMQSQMQLSQFPVMNRSAPQNHPGLVCQNPVQLQLQAQNQILSEQLARYMGGIPQMPPAGNQMQTVQQQPADMLGFGSPAGPQSQLSAPATTDSLHMGKIG
For the molecule B2, the binding result in assay [3] and in assay [4] was “binds” in each case.

B3: GAL4-activation domain fused to full-length PIF1 (protein, UniProt Q8GZM7 1-478)
chain: MHHFVPDFDTDDDYVNNHNSSLNHLPRKSITTMGEDDDLMELLWQNGQVVVQNQRLHTKKPSSSPPKLLPSMDPQQQPSSDQNLFIQEDEMTSWLHYPLRDDDFCSDLLFSAAPTATATATVSQVTAARPPVSSTNESRPPVRNFMNFSRLRGDFNNGRGGESGPLLSKAVVRESTQVSPSATPSAAASESGLTRRTDGTDSSAVAGGGAYNRKGKAVAMTAPAIEITGTSSSVVSKSEIEPEKTNVDDRKRKEREATTTDETESRSEETKQARVSTTSTKRSRAAEVHNLSERKRRDRINERMKALQELIPRCNKSDKASMLDEAIEYMKSLQLQIQMMSMGCGMMPMMYPGMQQYMPHMAMGMGMNQPIPPPSFMPFPNMLAAQRPLPTQTHMAGSGPQYPVHASDPSRVFVPNQQYDPTSGQPQYPAGYTDPYQQFRGLHPTQPPQFQNQATSYPSSSRVSSSKESEDHGNHTTG
With B3, the binding result in assay [1] and in assay [2] was “binds” each time.

B4: TAP-PIF1 (protein, UniProt Q8GZM7 1-478)
chain: MHHFVPDFDTDDDYVNNHNSSLNHLPRKSITTMGEDDDLMELLWQNGQVVVQNQRLHTKKPSSSPPKLLPSMDPQQQPSSDQNLFIQEDEMTSWLHYPLRDDDFCSDLLFSAAPTATATATVSQVTAARPPVSSTNESRPPVRNFMNFSRLRGDFNNGRGGESGPLLSKAVVRESTQVSPSATPSAAASESGLTRRTDGTDSSAVAGGGAYNRKGKAVAMTAPAIEITGTSSSVVSKSEIEPEKTNVDDRKRKEREATTTDETESRSEETKQARVSTTSTKRSRAAEVHNLSERKRRDRINERMKALQELIPRCNKSDKASMLDEAIEYMKSLQLQIQMMSMGCGMMPMMYPGMQQYMPHMAMGMGMNQPIPPPSFMPFPNMLAAQRPLPTQTHMAGSGPQYPVHASDPSRVFVPNQQYDPTSGQPQYPAGYTDPYQQFRGLHPTQPPQFQNQATSYPSSSRVSSSKESEDHGNHTTG
In the case of B4, the binding result in assay [3] and in assay [4] was “binds” each time.
